Data as given in publication doi:10.1101/2020.07.21.214296.
These are yes or no findings as the source states them, for the method shown. Binding seen in cells or lysates may run through a third protein. Some binding calls cover weakened binding; strength is not graded here.

Amino acid sequences for entries named in this document (tags omitted).
UniProt Q9QX29: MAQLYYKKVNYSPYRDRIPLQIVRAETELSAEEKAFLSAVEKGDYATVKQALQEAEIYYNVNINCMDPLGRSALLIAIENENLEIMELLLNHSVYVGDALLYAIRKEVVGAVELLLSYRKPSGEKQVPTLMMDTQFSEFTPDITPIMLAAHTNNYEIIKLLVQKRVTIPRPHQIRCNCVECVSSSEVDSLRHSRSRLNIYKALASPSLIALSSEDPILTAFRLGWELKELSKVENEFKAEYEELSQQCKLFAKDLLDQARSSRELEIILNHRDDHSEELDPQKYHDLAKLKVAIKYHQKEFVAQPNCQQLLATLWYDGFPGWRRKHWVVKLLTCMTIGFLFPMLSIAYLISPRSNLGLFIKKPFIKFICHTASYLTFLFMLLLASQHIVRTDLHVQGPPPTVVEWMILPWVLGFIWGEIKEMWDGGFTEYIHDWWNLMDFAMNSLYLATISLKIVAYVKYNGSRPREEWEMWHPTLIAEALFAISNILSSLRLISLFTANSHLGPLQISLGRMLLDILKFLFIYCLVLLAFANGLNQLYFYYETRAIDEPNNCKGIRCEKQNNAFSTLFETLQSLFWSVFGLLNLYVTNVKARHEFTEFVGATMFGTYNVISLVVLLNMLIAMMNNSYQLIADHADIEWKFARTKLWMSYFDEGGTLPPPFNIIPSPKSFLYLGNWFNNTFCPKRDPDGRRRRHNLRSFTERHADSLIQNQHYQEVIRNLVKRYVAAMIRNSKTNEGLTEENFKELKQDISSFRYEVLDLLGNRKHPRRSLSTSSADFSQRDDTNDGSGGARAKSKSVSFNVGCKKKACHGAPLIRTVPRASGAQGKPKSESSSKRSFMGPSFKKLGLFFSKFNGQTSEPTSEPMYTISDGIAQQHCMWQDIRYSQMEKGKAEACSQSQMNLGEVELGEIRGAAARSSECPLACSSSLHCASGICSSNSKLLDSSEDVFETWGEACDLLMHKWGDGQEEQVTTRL
UniProt O88427: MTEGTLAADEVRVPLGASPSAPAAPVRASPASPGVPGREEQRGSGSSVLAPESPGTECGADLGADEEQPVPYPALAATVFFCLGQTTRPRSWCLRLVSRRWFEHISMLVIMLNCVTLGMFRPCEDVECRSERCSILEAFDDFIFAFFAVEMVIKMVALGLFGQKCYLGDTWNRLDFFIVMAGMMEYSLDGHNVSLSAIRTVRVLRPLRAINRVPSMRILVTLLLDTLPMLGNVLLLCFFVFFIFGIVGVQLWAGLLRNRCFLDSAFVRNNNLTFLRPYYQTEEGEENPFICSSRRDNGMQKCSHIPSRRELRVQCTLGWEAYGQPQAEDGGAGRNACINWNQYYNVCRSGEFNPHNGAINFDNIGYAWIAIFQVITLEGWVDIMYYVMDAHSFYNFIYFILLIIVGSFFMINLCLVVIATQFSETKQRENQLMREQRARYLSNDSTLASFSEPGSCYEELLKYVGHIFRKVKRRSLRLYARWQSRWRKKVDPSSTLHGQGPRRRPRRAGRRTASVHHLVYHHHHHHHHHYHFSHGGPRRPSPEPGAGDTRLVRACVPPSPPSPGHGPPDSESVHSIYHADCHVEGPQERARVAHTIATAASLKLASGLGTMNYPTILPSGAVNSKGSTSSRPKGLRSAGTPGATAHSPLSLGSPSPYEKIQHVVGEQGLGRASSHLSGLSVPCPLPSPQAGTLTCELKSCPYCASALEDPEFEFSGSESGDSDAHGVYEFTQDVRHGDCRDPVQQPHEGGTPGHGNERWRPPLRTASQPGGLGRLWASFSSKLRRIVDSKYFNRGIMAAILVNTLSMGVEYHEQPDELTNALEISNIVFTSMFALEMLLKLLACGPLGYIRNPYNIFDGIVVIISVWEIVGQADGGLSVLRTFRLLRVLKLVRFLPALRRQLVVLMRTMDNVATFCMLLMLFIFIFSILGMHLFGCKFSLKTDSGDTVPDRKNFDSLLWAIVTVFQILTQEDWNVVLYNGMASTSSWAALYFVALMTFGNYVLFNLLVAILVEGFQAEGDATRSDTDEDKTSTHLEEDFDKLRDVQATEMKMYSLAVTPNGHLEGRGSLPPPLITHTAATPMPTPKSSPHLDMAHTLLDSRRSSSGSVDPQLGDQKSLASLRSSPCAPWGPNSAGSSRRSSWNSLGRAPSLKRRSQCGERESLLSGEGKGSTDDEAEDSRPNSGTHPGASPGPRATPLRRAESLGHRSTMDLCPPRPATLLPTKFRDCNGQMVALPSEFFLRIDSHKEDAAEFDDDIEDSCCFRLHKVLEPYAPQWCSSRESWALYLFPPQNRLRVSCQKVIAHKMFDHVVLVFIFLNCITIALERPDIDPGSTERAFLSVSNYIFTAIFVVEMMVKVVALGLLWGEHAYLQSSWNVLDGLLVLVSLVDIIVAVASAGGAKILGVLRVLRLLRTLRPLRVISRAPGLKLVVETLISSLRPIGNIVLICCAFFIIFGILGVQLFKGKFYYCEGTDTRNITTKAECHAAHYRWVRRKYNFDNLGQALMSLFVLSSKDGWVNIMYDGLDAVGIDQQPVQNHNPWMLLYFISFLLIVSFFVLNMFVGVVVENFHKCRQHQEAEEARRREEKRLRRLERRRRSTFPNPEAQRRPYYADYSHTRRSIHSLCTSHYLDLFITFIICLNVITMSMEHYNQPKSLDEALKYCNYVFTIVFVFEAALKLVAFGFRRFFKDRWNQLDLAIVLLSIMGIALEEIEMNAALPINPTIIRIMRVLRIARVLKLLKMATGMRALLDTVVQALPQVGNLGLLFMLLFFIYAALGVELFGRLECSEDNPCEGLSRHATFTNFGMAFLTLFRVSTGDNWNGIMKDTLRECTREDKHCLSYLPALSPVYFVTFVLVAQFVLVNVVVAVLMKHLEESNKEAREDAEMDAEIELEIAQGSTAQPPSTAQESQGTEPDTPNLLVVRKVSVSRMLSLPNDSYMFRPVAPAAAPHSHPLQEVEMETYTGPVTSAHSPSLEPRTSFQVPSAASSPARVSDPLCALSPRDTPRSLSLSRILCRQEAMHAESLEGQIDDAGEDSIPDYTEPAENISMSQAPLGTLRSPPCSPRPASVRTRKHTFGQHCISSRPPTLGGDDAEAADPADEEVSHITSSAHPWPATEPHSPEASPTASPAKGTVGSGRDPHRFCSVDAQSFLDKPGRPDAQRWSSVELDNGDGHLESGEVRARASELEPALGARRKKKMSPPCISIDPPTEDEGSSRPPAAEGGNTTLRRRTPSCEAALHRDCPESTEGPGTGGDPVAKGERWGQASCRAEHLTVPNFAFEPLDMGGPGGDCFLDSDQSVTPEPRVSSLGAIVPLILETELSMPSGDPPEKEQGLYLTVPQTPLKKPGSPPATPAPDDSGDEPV
UniProt Q5SUF7: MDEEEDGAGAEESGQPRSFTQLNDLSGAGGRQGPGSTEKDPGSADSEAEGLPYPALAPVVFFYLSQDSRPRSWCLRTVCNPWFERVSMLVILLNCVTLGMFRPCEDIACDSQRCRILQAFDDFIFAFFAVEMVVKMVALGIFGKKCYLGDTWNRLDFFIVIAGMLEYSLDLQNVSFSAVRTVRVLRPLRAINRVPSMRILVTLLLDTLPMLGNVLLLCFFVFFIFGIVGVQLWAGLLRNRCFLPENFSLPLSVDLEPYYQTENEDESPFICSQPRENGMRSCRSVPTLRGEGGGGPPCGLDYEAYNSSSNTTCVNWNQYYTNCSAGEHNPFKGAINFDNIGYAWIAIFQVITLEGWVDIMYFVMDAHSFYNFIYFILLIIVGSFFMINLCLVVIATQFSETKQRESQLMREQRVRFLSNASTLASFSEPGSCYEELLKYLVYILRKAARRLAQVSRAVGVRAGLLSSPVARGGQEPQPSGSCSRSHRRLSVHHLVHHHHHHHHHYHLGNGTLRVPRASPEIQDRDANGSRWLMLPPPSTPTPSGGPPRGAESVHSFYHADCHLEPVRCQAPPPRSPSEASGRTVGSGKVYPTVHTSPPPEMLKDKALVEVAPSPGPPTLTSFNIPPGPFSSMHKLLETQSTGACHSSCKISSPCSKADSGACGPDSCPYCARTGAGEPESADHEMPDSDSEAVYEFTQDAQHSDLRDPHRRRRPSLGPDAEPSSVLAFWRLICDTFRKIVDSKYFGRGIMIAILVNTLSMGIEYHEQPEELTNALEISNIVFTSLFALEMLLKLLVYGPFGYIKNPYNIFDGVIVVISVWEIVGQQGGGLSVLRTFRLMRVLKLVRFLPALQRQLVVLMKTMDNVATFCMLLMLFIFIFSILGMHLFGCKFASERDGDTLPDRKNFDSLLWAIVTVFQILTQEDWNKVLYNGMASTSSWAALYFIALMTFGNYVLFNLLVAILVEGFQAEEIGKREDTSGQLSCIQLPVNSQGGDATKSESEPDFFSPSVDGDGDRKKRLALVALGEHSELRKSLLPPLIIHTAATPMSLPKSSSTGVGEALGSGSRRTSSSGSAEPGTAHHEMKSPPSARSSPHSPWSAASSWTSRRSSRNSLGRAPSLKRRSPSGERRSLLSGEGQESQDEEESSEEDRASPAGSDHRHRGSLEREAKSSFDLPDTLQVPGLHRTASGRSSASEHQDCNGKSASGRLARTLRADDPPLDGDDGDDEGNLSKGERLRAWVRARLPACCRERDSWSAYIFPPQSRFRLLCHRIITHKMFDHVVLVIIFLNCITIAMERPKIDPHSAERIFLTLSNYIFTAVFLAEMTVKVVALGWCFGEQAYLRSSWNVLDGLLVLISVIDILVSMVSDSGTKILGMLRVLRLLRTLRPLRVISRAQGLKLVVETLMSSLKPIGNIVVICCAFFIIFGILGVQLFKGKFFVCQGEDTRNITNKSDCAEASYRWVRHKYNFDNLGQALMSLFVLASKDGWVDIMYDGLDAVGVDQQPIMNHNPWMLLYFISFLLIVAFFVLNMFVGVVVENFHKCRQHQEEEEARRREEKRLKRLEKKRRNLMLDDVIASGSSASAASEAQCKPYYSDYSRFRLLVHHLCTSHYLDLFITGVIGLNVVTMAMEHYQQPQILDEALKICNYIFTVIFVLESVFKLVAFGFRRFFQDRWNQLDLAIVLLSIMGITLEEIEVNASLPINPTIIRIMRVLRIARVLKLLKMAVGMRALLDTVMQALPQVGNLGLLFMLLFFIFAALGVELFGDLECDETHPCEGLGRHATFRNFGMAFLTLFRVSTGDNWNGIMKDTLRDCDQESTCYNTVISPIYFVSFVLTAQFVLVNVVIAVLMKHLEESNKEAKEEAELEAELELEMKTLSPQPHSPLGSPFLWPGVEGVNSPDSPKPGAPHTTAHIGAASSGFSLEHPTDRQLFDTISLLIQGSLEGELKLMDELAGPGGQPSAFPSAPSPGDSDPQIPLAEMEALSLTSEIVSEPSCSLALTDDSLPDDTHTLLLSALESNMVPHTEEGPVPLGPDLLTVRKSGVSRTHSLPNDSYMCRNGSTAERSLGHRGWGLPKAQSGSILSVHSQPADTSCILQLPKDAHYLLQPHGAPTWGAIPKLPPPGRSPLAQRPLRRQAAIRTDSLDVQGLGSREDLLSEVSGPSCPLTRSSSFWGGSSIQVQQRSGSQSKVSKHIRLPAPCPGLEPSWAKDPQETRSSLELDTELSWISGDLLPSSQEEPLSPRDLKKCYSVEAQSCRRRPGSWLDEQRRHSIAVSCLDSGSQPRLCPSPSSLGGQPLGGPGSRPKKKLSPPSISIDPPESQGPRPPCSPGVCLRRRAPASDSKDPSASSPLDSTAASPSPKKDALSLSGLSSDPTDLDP
UniProt Q61056: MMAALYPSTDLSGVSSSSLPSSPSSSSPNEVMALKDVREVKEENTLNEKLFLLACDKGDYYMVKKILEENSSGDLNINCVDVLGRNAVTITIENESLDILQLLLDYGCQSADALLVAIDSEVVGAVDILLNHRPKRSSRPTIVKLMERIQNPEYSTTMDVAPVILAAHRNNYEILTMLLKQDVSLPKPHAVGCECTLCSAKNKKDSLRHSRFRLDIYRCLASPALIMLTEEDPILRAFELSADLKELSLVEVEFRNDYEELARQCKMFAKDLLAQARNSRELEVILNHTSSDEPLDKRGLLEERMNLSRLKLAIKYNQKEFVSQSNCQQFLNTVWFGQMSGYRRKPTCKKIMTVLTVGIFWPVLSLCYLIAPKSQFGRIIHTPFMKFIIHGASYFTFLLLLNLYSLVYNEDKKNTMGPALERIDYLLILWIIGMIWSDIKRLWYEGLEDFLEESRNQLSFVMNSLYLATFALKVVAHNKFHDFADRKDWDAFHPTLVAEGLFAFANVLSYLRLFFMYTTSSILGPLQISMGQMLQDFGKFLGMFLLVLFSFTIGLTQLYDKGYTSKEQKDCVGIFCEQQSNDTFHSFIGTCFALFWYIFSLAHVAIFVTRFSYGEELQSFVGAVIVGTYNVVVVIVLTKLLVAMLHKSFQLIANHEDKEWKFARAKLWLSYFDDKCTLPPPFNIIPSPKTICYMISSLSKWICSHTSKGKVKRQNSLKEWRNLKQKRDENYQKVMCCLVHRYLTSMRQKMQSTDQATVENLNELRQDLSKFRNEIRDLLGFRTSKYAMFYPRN

What was measured:
Assay in all cases: co-IP
[1] = biological target: TRPC5 channel (Transient Receptor Potential Cation 5) (mouse (endogenous in mouse brain and hypothalamus)) (UniProt Q9QX29)
[2] = biological target: CaV3.2 channel (T-type calcium channel α1H) (mouse (endogenous in mouse brain and hypothalamus)) (UniProt O88427)
[3] = biological target: CaV3.1 channel (T-type calcium channel α1G) (mouse (endogenous in mouse brain and hypothalamus)) (UniProt Q5SUF7)

Row | Substance | binding [1] | binding [2] | binding [3]
1 | CaV3.1 channel (T-type calcium channel α1G) (from UniProt Q5SUF7 1-2381) | binds | – | –
2 | CaV3.2 channel (T-type calcium channel α1H) (from UniProt O88427 1-2365) | binds | – | –
3 | TRPC1 channel (from UniProt Q61056 1-793) | binds | binds | binds
4 | TRPC5 channel (Transient Receptor Potential Cation 5) (from UniProt Q9QX29 1-975) | – | binds | binds
